The whole screen tested about 360,000 compounds, of which about 11,000 (3.1%) were called active. These results got no clear call from the source, so the numbers are uncertain. The call rests on the fitted dose curve; in most records, active means well fitted inhibition curve with a large enough effect; inconclusive means small, poorly fitted or top-dose-only effect; inactive means no such curve, though single readings can be large or run the other way.
Target: Schistosoma mansoni thioredoxin glutathione reductase (TGR) (UniProt Q962Y6)
Assay: qHTS Assay for the Inhibitors of Schistosoma Mansoni Peroxiredoxins; further: nearly all actives have a fitted effect of over 60% in size
Conditions: purified TGR, DTNB reduction, TNB absorbance 405 nm
Description: Schistosomiasis is a major neglected tropical disease that currently affects over 200 million. It is caused by different species of flatworms, such as Schistosoma mansoni. Over the last century, drugs to treat the disease have evolved from potassium antimonyl tartrate, artemisinin, oxamniquine, to praziquantel, with praziquantel remaining the universally-used single drug of choice over the past three decades. However, transmission rates have changed little with praziquantel, and there is evidence for the development of drug resistant parasites. Because there is currently no suitable alternative therapy available, there is an urgent need to identify new targets and drugs for schistosomiasis treatment. […] Recently, a quantitative high-throughput screen of the NIH Molecular Libraries Small Molecule Repository (MLSMR, ~71K at the time of the screen in 2007) was performed using an assay that targeted both TGR and peroxiredoxin2 (Prx2, an H2O2-reducing enzymatic component of the S. mansoni redox "firewall") by following the decrease of NADPH fluorescence. […] In addition, the fluorescence assay was also subject to fluorescence interference from compound library members. […] The assay followed the reduction of 5, 5'-dithiobis (2-nitrobenzoic acid) (DTNB) (Ellman's reagent) by NADPH and measured the increase in absorbance at 412 nm of the reaction product, TNB. […]
Potency means the concentration at half of the fitted maximal effect.

SMILES | Potency
O=[N+]([O-])c1cc([N+](=O)[O-])c(-n2nnc3ccccc32)c([N+](=O)[O-])c1 | inconclusive: 44.7 µM
